# Results as given in the supplement of paper PMC8728848.
# Some of the results follow.
# B1: B936 (Bifidobacterium sp) (protein)
# chain: MKNWKKAIALVASAAALVSVAACGPSNAGGSSDSGKKTVGFVAVGPEGGFRTANEKDIQKAFEDAGFDLTYSPTQNNDQQKQIQAFNKFVNDEVDAIILSSTEDSGWDDSLKKAAEAEIPVFTVDRNVDVKDAEAKKAIVAHIGPSNVWCGEQAAEFVNKNFPDGANGFILEGPAGLSVVKDRGTGWGNKVASNVKVLESQSANWSTDEAKTVTAGLLDKYKSDNPQFIFAQNDEMGLGAAQAVDAAGLKGKVKIITIDGTKNALQALVDGDLSYVIEYNPIFGKETAQAVKDYLDGKTVEKDIEIESKTFDAASAKEALDNNTRAY
# Key:
# Assay in all cases: glycan array binding signal (z-score within array); higher = stronger binding
# Settings in all cases: glycan notation: IUPAC condensed, linker removed
# [1] = target: GlcNAc(b1-2)[GlcNAc(b1-4)]Man(a1-3)[GlcNAc(b1-4)][GlcNAc(b1-2)[GlcNAc(b1-6)]Man(a1-6)]Man(b1-4)GlcNAc(b1-4)GlcNAc
# In short: (§1)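 Arrays were curated from the Consortium for Functional Glycomics database, 3228 in total, and kept only where the protein sequence was available. Binding is expressed as a within-array Z-score. This score was averaged across arrays of the same protein sequence at different concentrations or buffers and across linkers, and negative values can be read as non-binding.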
# [2] = target: GlcNAc(b1-2)[GlcNAc(b1-4)]Man(a1-3)[GlcNAc(b1-4)][GlcNAc(b1-2)[GlcNAc(b1-6)]Man(a1-6)]Man(b1-4)GlcNAc(b1-4)[Fuc(a1-6)]GlcNAc
# In short: as §1
# [3] = target: GlcNAc(b1-2)[GlcNAc(b1-6)]Man(a1-6)[GlcNAc(b1-2)Man(a1-3)]Man(b1-4)GlcNAc(b1-4)GlcNAc
# In short: as §1
# [4] = target: GlcNAc(b1-2)[GlcNAc(b1-6)]Man(a1-6)[GlcNAc(b1-2)Man(a1-3)]Man(b1-4)GlcNAc(b1-4)[Fuc(a1-6)]GlcNAc
# In short: as §1
# [5] = target: GlcNAc(b1-2)[GlcNAc(b1-6)]Man(a1-6)[GlcNAc(b1-4)][GlcNAc(b1-2)Man(a1-3)]Man(b1-4)GlcNAc(b1-4)GlcNAc
# In short: as §1
# GlcNAc(b1-3)Fuc = target: GlcNAc(b1-3)Fuc
# In short: as §1
# GlcNAc(b1-3)Gal = target: GlcNAc(b1-3)Gal
# In short: as §1
# [6] = target: GlcNAc(b1-3)Gal(b1-3)GalNAc
# In short: as §1
# GlcNAc(b1-3)Gal(b1-4)Glc = target: GlcNAc(b1-3)Gal(b1-4)Glc
# In short: as §1
# [7] = target: GlcNAc(b1-3)Gal(b1-4)GlcNAc
# In short: as §1
# [8] = target: GlcNAc(b1-3)Gal(b1-4)GlcNAc(b1-2)Man(a1-3)[GlcNAc(b1-3)Gal(b1-4)GlcNAc(b1-2)Man(a1-6)]Man(b1-4)GlcNAc(b1-4)GlcNAc
# In short: as §1
# [9] = target: GlcNAc(b1-3)Gal(b1-4)GlcNAc(b1-2)Man(a1-3)[GlcNAc(b1-3)Gal(b1-4)GlcNAc(b1-2)Man(a1-6)]Man(b1-4)GlcNAc(b1-4)[Fuc(a1-6)]GlcNAc
# In short: as §1
# [10] = target: GlcNAc(b1-3)Gal(b1-4)GlcNAc(b1-2)[GlcNAc(b1-3)Gal(b1-4)GlcNAc(b1-6)]Man(a1-6)[GlcNAc(b1-3)Gal(b1-4)GlcNAc(b1-2)Man(a1-3)]Man(b1-4)GlcNAc(b1-4)GlcNAc
# In short: as §1
# [11] = target: GlcNAc(b1-3)Gal(b1-4)GlcNAc(b1-3)Gal(b1-4)GlcNAc
# In short: as §1
# [12] = target: GlcNAc(b1-3)Gal(b1-4)GlcNAc(b1-3)Gal(b1-4)GlcNAc(b1-2)Man(a1-3)[GlcNAc(b1-3)Gal(b1-4)GlcNAc(b1-3)Gal(b1-4)GlcNAc(b1-2)Man(a1-6)]Man(b1-4)GlcNAc(b1-4)GlcNAc
# In short: as §1
# [13] = target: GlcNAc(b1-3)Gal(b1-4)GlcNAc(b1-3)Gal(b1-4)GlcNAc(b1-2)Man(a1-3)[GlcNAc(b1-3)Gal(b1-4)GlcNAc(b1-3)Gal(b1-4)GlcNAc(b1-2)Man(a1-6)]Man(b1-4)GlcNAc(b1-4)[Fuc(a1-6)]GlcNAc
# In short: as §1
# [14] = target: GlcNAc(b1-3)Gal(b1-4)GlcNAc(b1-3)Gal(b1-4)GlcNAc(b1-2)[GlcNAc(b1-3)Gal(b1-4)GlcNAc(b1-3)Gal(b1-4)GlcNAc(b1-6)]Man(a1-6)[GlcNAc(b1-3)Gal(b1-4)GlcNAc(b1-3)Gal(b1-4)GlcNAc(b1-2)Man(a1-3)]Man(b1-4)GlcNAc(b1-4)[Fuc(a1-6)]GlcNAc
# In short: as §1
# [15] = target: GlcNAc(b1-3)Gal(b1-4)GlcNAc(b1-3)Gal(b1-4)GlcNAc(b1-3)Gal(b1-4)GlcNAc(b1-2)Man(a1-3)[GlcNAc(b1-3)Gal(b1-4)GlcNAc(b1-3)Gal(b1-4)GlcNAc(b1-3)Gal(b1-4)GlcNAc(b1-2)Man(a1-6)]Man(b1-4)GlcNAc(b1-4)GlcNAc
# In short: as §1
# [16] = target: GlcNAc(b1-3)Gal(b1-4)GlcNAc(b1-3)Gal(b1-4)GlcNAc(b1-3)Gal(b1-4)GlcNAc(b1-2)Man(a1-3)[GlcNAc(b1-3)Gal(b1-4)GlcNAc(b1-3)Gal(b1-4)GlcNAc(b1-3)Gal(b1-4)GlcNAc(b1-2)Man(a1-6)]Man(b1-4)GlcNAc(b1-4)[Fuc(a1-6)]GlcNAc
# In short: as §1
# [17] = target: GlcNAc(b1-3)Gal(b1-4)GlcNAc(b1-3)Gal(b1-4)GlcNAc(b1-3)Gal(b1-4)GlcNAc(b1-2)[GlcNAc(b1-3)Gal(b1-4)GlcNAc(b1-3)Gal(b1-4)GlcNAc(b1-3)Gal(b1-4)GlcNAc(b1-6)]Man(a1-6)[GlcNAc(b1-3)Gal(b1-4)GlcNAc(b1-3)Gal(b1-4)GlcNAc(b1-3)Gal(b1-4)GlcNAc(b1-2)Man(a1-3)]Man(b1-4)GlcNAc(b1-4)[Fuc(a1-6)]GlcNAc
# In short: as §1
# [18] = target: GlcNAc(b1-3)Gal(b1-4)GlcNAc(b1-3)Gal(b1-4)GlcNAc(b1-3)Gal(b1-4)GlcNAc(b1-3)Gal(b1-4)GlcNAc(b1-2)Man(a1-3)[GlcNAc(b1-3)Gal(b1-4)GlcNAc(b1-3)Gal(b1-4)GlcNAc(b1-3)Gal(b1-4)GlcNAc(b1-3)Gal(b1-4)GlcNAc(b1-2)Man(a1-6)]Man(b1-4)GlcNAc(b1-4)GlcNAc
# In short: as §1
# [19] = target: GlcNAc(b1-3)Gal(b1-4)GlcNAc(b1-3)Gal(b1-4)GlcNAc(b1-3)Gal(b1-4)GlcNAc(b1-3)Gal(b1-4)GlcNAc(b1-2)Man(a1-3)[GlcNAc(b1-3)Gal(b1-4)GlcNAc(b1-3)Gal(b1-4)GlcNAc(b1-3)Gal(b1-4)GlcNAc(b1-3)Gal(b1-4)GlcNAc(b1-2)Man(a1-6)]Man(b1-4)GlcNAc(b1-4)[Fuc(a1-6)]GlcNAc
# In short: as §1
# [20] = target: GlcNAc(b1-3)Gal(b1-4)GlcNAc(b1-3)Gal(b1-4)GlcNAc(b1-3)Gal(b1-4)GlcNAc(b1-3)Gal(b1-4)GlcNAc(b1-2)[GlcNAc(b1-3)Gal(b1-4)GlcNAc(b1-3)Gal(b1-4)GlcNAc(b1-3)Gal(b1-4)GlcNAc(b1-3)Gal(b1-4)GlcNAc(b1-6)]Man(a1-6)[GlcNAc(b1-3)Gal(b1-4)GlcNAc(b1-3)Gal(b1-4)GlcNAc(b1-3)Gal(b1-4)GlcNAc(b1-3)Gal(b1-4)GlcNAc(b1-2)Man(a1-3)]Man(b1-4)GlcNAc(b1-4)[Fuc(a1-6)]GlcNAc
# In short: as §1
# [21] = target: GlcNAc(b1-3)Gal(b1-4)GlcNAc(b1-3)Gal(b1-4)GlcNAc(b1-3)GalNAc
# In short: as §1
# [22] = target: GlcNAc(b1-3)Gal(b1-4)GlcNAc(b1-3)GalNAc
# In short: as §1
# [23] = target: GlcNAc(b1-3)Gal(b1-4)GlcNAc(b1-3)[GlcNAc(b1-3)Gal(b1-4)GlcNAc(b1-3)]GalNAc
# In short: as §1
# [24] = target: GlcNAc(b1-3)Gal(b1-4)GlcNAc(b1-6)[Gal(b1-3)]GalNAc
# In short: as §1
# [25] = target: GlcNAc(b1-3)Gal(b1-4)GlcNAc(b1-6)[GlcNAc(b1-3)Gal(b1-3)]GalNAc
# In short: as §1
# [26] = target: GlcNAc(b1-3)Gal(b1-4)GlcNAc(b1-6)[GlcNAc(b1-3)]Gal(b1-4)GlcNAc
# In short: as §1
# GlcNAc(b1-3)GalNAc = target: GlcNAc(b1-3)GalNAc
# In short: as §1
# GlcNAc(b1-3)Man = target: GlcNAc(b1-3)Man
# In short: as §1
# [27] = target: GlcNAc(b1-3)[GlcNAc(b1-4)][GlcNAc(b1-6)]GlcNAc
# In short: as §1
# [28] = target: GlcNAc(b1-3)[GlcNAc(b1-6)]Gal(b1-4)GlcNAc
# In short: as §1
# [29] = target: GlcNAc(b1-3)[GlcNAc(b1-6)]GalNAc
# In short: as §1
# [30] = target: GlcNAc(b1-4)Gal(b1-4)GlcNAc
# In short: as §1
# GlcNAc(b1-4)GlcNAc = target: GlcNAc(b1-4)GlcNAc
# In short: as §1
# [31] = target: GlcNAc(b1-4)GlcNAc(b1-4)GlcNAc
# In short: as §1
# [32] = target: GlcNAc(b1-4)GlcNAc(b1-4)GlcNAc(b1-4)GlcNAc(b1-4)GlcNAc
# In short: as §1
binder,measurement,setting,value
B1,glycan array binding signal (z-score),[1],-0.472
same,glycan array binding signal (z-score),[2],0.689
same,glycan array binding signal (z-score),[3],-0.413
same,glycan array binding signal (z-score),[4],1.03
same,glycan array binding signal (z-score),[5],-0.739
same,glycan array binding signal (z-score),GlcNAc(b1-3)Fuc,0.368
same,glycan array binding signal (z-score),GlcNAc(b1-3)Gal,-0.282
same,glycan array binding signal (z-score),[6],0.418
same,glycan array binding signal (z-score),GlcNAc(b1-3)Gal(b1-4)Glc,-0.236
same,glycan array binding signal (z-score),[7],-0.199
same,glycan array binding signal (z-score),[8],0.362
same,glycan array binding signal (z-score),[9],0.054
same,glycan array binding signal (z-score),[10],0.142
same,glycan array binding signal (z-score),[11],-1.04
same,glycan array binding signal (z-score),[12],0.824
same,glycan array binding signal (z-score),[13],-0.081
same,glycan array binding signal (z-score),[14],1.49
same,glycan array binding signal (z-score),[15],0.197
same,glycan array binding signal (z-score),[16],0.684
same,glycan array binding signal (z-score),[17],-0.381
same,glycan array binding signal (z-score),[18],-0.371
same,glycan array binding signal (z-score),[19],-0.517
same,glycan array binding signal (z-score),[20],-0.109
same,glycan array binding signal (z-score),[21],-0.4
same,glycan array binding signal (z-score),[22],-0.806
same,glycan array binding signal (z-score),[23],-0.354
same,glycan array binding signal (z-score),[24],0.88
same,glycan array binding signal (z-score),[25],-0.461
same,glycan array binding signal (z-score),[26],-0.445
same,glycan array binding signal (z-score),GlcNAc(b1-3)GalNAc,-0.602
same,glycan array binding signal (z-score),GlcNAc(b1-3)Man,-0.286
same,glycan array binding signal (z-score),[27],-0.204
same,glycan array binding signal (z-score),[28],-0.022
same,glycan array binding signal (z-score),[29],0.195
same,glycan array binding signal (z-score),[30],0.488
same,glycan array binding signal (z-score),GlcNAc(b1-4)GlcNAc,-0.37
same,glycan array binding signal (z-score),[31],-0.483
same,glycan array binding signal (z-score),[32],0.056

# Exported with bars between the fields: entries from further up.
binder | measurement | setting | value
B1 | glycan array binding signal (z-score) | [11] | -1.04
same | glycan array binding signal (z-score) | [12] | 0.824
same | glycan array binding signal (z-score) | [13] | -0.081
